Test results published in publication doi:10.1101/663153 (bioRxiv, 2019).
Where two headings read alike, the source gives them in different places. No constants are given. Whether binding was seen depends on the method and setting. Binding seen in cells or lysates may run through a third protein. Some results given as binding are weak or reduced against the parent protein; the word gives no strength. Values belong to the molecule of their own block, whether it stands above or below them.

Tests used:
Test in all cases: FRET or BRET
[1] = molecular target: CysLTR2-GFP10-1D4 wt (human) (UniProt Q9NS75)
[2] = molecular target: CysLTR2-GFP10-1D4 wt (human) (UniProt Q9NS75); remark: listed apart in the source
[3] = molecular target: CysLTR2-GFP10-1D4 wt (human) (UniProt Q9NS75); remark: listed apart in the source
[4] = molecular target: T1, CysLTR2-GFP10-1D4 L129Q (human, UniProt Q9NS75 1-346, L129Q)
T1 sequence (looked up): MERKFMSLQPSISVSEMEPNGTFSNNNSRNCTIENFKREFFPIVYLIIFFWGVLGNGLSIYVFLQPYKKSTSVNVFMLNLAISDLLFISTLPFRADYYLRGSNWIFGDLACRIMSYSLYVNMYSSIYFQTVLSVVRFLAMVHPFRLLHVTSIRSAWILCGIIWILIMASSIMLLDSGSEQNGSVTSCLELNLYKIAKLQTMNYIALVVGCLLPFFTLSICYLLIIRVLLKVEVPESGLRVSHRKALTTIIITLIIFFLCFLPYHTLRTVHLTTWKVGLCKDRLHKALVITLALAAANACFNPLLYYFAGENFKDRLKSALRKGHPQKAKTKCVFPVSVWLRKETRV

binding [1]: binds
binding [2]: binds
Molecule: β-Arrestin2-RLuc3 (from UniProt P32121 1-409)

binding [1]: binds
binding [3]: binds
binding [4]: binds weakly
binding [2]: binds
B1: β-Arrestin1-RLuc3 (natural protein, UniProt P49407 1-418, looked up)
chain: MGDKGTRVFKKASPNGKLTVYLGKRDFVDHIDLVDPVDGVVLVDPEYLKERRVYVTLTCAFRYGREDLDVLGLTFRKDLFVANVQSFPPAPEDKKPLTRLQERLIKKLGEHAYPFTFEIPPNLPCSVTLQPGPEDTGKACGVDYEVKAFCAENLEEKIHKRNSVRLVIRKVQYAPERPGPQPTAETTRQFLMSDKPLHLEASLDKEIYYHGEPISVNVHVTNNTNKTVKKIKISVRQYADICLFNTAQYKCPVAMEEADDTVAPSSTFCKVYTLTPFLANNREKRGLALDGKLKHEDTNLASSTLLREGANREILGIIVSYKVKVKLVVSRGGLLGDLASSDVAVELPFTLMHPKPKEEPPHREVPENETPVDTNLIELDTNDDDIVFEDFARQRLKGMKDDKEEEEDGTGSPQLNNR
